Screening data, single-dose tests

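Assay of Toxoplasma gondii numbers, read through their beta-galactosidase reporter with a colour substrate. Compounds at 50 µM. Higher reads as fewer parasites (inferred from which compounds were picked for retests). Of about 18,000 compounds tested this way, about 170 (0.94%) reached 50% or more in at least one test.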

Results are given as percent effect. The record does not define 0% and 100%; most values in the screen are far below 50% and negative numbers occur (in some assays of this library far below -100). Compounds were drawn at random from those tested, without regard to their results.

| compound | percent effect |
|---|---|
| `OCCc1cn2c(n1)CCCC2` | 15.25 |
| `CCc1nsc(N2CCN(CCC(=O)NC)CC2)n1` | -1.835 |
| `CCNS(=O)(=O)C1CCN(Cc2cccn2C)C1` (stereo not shown) | -1.688 |
| `CCCC(C#N)NC(=O)c1ccn(-c2ccccc2)n1` (stereo not shown) | 3.458 |
| `CC(C(=O)Nc1cc(Cl)c(Cl)cn1)S(C)(=O)=O` (stereo not shown) | -1.528 |
| `CC(=O)Nc1ccc(CNc2nnc(C(C)C)o2)cc1` | -6.277 |
| `NC1CCN(c2ncccc2F)C1` (stereo not shown) | -2.597 |
| `CC1(C)C(=O)NCCN1C(=O)COC1CCCC1` | 17.43 |
| `CC(C)(C)OC(=O)N1CCOCC(CO)C1` (stereo not shown) | -8.679 |
| `Cc1ccc(C(=O)N(CC2CCOC2)C2CC2)c(=O)[nH]1` (stereo not shown) | 3.55 |
| `CC(C)C(=O)NCc1ccc(S(=O)(=O)NC2CC2)cc1` | -14.63 |
| `CNCc1noc(C)n1` | 0.9197 |
| `N#Cc1c(N2CCOCC2)nc2c(c1C#N)CCC2` | -4.07 |
| `NCC1CCN(c2ncccn2)CC1` | 6.774 |
| `OC(CN1CCN(c2ccccn2)CC1)C1CC1` (stereo not shown) | -51.5 |
| `COc1ccc(CC(=O)N2CCCNCC2)cc1` | 0.6304 |
| `NC(=O)c1cc(N)nc2ccccc12` | -4.274 |
| `Cc1cccc(CN2CCC3(CC2)[C@H](O)C[C@@H]3O)c1` | 8.99 |
| `CN(C)c1cc(CNS(=O)(=O)c2cccs2)ccn1` | 6.44 |
| `CN1CC2(CCN(CCCn3cccc3)CC2)OC1=O` | 8.198 |
| `Cc1nc(NCCc2cc[nH]n2)cc(C2CC(O)C2)n1` (stereo not shown) | 12.75 |
| `COCc1ccccc1CN` | -2.925 |
| `O=C(CCn1cncn1)N1CCN(c2nccs2)CC1` | -5.466 |
| `CC(C)(C)OC(=O)N1CCN(C(CN)C(F)(F)F)CC1` (stereo not shown) | 5.495 |
| `CCN1CCC(CNC(=O)Nc2ccc(OC)nc2)C1` (stereo not shown) | 1.449 |
| `COCC(O)CN(C)Cc1cccc(NC(C)=O)c1` (stereo not shown) | 4.181 |
| `CC(CO)N(C)C(=O)c1cccc2cc[nH]c12` (stereo not shown) | 3.789 |
| `CC(C)CC(O)C1CCN(Cc2cccnc2N)CC1` (stereo not shown) | -16.11 |
| `CCCC(N)CNS(=O)(=O)c1ccc(C#N)cc1` (stereo not shown) | -7.415 |
| `NC(=O)NCC(=O)NCC1COc2ccccc2C1` (stereo not shown) | -3.428 |
| `NC(=O)c1cccc(Cn2cc(Br)ccc2=O)c1` | -14.86 |
| `Cc1nc(CN(C)C(=O)C2CCN(C(C)C)CC2)no1` | 2.055 |
| `CC1CS(=O)(=O)CCN1C(=O)c1cccc2cc[nH]c12` (stereo not shown) | -11.25 |
| `CN1CCC(Oc2ccc(CN)cc2)CC1` | -8.142 |
| `Cc1nn(C)cc1C1CCCN1` (stereo not shown) | -2.522 |
| `CSc1cc(NC(=O)NCCn2ccnc2)ccn1` | 18.87 |
| `Cc1cnc(C(=O)c2ncc(C)[nH]2)[nH]1` | -21.8 |
| `CC(C)OCCN1CCC(N)CC1` | -3.294 |
| `CN(Cc1cc[nH]n1)CC(C)(C)CN1CCCC1` | -1.225 |
| `CC(C)c1nc(-c2cccc(O)c2)n[nH]1` | -5.071 |
| `Clc1cccnc1N1CCC(Nc2cccnc2)CC1` | 12.61 |
| `O=C(N[C@H]1CCCNC1)c1ccc(F)cc1F` | -5.906 |
| `CC(CC#N)N(C)C(=O)c1nccc2ccccc12` (stereo not shown) | -5.269 |
| `CN(Cc1cnn(C)c1)C(=O)C1CCCN(C(N)=O)C1` (stereo not shown) | -4.98 |
| `NC(=O)CN1CCC(OCCCc2ccccc2)C1` (stereo not shown) | -4.439 |
| `CCOC(=O)N1CCN(C(=O)c2onc(C)c2Cl)CC1` | 1.461 |
| `CCOc1ccc(S(=O)(=O)NC2CC2)cc1NC(C)=O` | 1.611 |
| `COCCn1cc(CNC(=O)CC2CC2)cn1` | -5.05 |
| `Cc1nnsc1CN(C)C(=O)c1ccccc1` | 22.64 |
| `COc1c(CNCc2ccnn2C)c(C)nn1C` | -2.431 |
| `CC(C)NC(=O)NC(C)Cc1ccc(O)cc1` (stereo not shown) | 10.13 |
| `CN(C)C(=O)OCCO` | -2.66 |
| `Cc1ccnc(NCCNC(=O)Cc2nonc2C)c1` | 15.87 |
| `COCCC(CO)NC(=O)c1cnn(C(C)C)c1C` (stereo not shown) | 6.14 |
| `Cc1cc(C(=O)N(C)C[C@H](O)CO)cc(Cl)c1Br` | 2.687 |
| `O=C(NCCn1cccc1)c1[nH]nc2c1CCCC2` | 8.193 |
| `NCCCNC(=O)c1ccccc1OC(F)(F)C(F)F` | -2.726 |

The first 3 entries again:

| compound | percent effect |
|---|---|
| `OCCc1cn2c(n1)CCCC2` | 15.25 |
| `CCc1nsc(N2CCN(CCC(=O)NC)CC2)n1` | -1.835 |
| `CCNS(=O)(=O)C1CCN(Cc2cccn2C)C1` (stereo not shown) | -1.688 |

Source: ChEMBL document CHEMBL3988442, “University of Dundee, Small-Polar-MMV Screening Library” (2021).